Drawing on paper doi:10.1101/2022.07.12.499798, this text covers binding for 1 molecule.

Assay [1] addresses T1, KRP4 (Kip-Related Protein 4), yeast construct (rice (Oryza sativa)) (UniProt Q7XDH8).
T1 sequence: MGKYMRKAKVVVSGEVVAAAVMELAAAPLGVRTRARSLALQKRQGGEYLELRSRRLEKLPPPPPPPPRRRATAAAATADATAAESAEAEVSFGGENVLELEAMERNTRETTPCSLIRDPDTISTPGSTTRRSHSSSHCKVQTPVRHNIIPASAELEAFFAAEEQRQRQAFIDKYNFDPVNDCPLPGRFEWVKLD
Put plainly: co-IP.

Assay [2] deals with T2, KRP5 (Kip-Related Protein 5), yeast construct (rice (Oryza sativa)) (UniProt Q283L0).
T2 sequence: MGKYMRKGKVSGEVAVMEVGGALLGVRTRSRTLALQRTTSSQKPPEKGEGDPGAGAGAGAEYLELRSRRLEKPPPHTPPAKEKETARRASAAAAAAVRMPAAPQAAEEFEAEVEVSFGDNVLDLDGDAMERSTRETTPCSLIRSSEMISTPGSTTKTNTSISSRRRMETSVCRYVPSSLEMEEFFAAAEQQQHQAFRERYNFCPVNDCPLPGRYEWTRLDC
The experiment in a line: co-IP.

Assay [3] addresses T1, KRP4 (Kip-Related Protein 4), yeast construct (rice (Oryza sativa)). The experiment in a line: two-hybrid.
The target in assay [4] is KRP4m, C-terminally truncated KRP4 (rice (Oryza sativa)) (UniProt Q7XDH8). The experiment in a line: two-hybrid.
The target of assay [5] is KRP5m, C-terminally truncated KRP5 (rice (Oryza sativa)) (UniProt Q283L0). Put plainly: two-hybrid.
Assay [6] concerns the target T2, KRP5 (Kip-Related Protein 5), yeast construct (rice (Oryza sativa)). Put plainly: two-hybrid.

These are yes or no findings as the source states them, for the method shown. For part of these data: In cells and extracts the contact can be indirect. Some binding calls cover weakened binding; strength is not graded here.

B1: CDKB2;1, yeast construct (enzyme, UniProt Q0J4I1 1-326)
chain: MAALHHQAAAAPVTTTTDGGELRAMDLYEKLEKVGEGTYGKVYKAREKATGRIVALKKTRLPEDDEGVPPTALREVSLLRMLSQDSHVVRLLDLKQGQNKEGQTILYLVFEYMDTDLKKFIRAHRQNLQKIPVPTVKILMYQLCKGVAFCHGRGVLHRDLKPHNLLMDRKTMALKIADLGLSRSFTVPLKKYTHEILTLWYRAPEVLLGAAHYSTPVDIWSVGCIFAELATNQPLFAGDSEVQQLLHIFKLLGTPNEQVWPGVSKLPNWHEYPQWNPSKVSDLVHGLDADALDLLEKMLQYEPSKRISAKKAMEHPYFNDVNKELY
As to B1, the binding entry is on record as “binds” in assay [1]; “binds” in assay [2]; “binds” in assay [3]; “no binding” in assay [4]; “no binding” in assay [5]; “binds” in assay [6].
